± gives the standard deviation of the averaged measurements. The list shows a part of the results.
Tested on: APPdp1-6 iPSC-derived neurons
Experiment: pThr231Tau/total Tau ratio Z-score vs DMSO vehicle wells; higher = more pThr231Tau relative to total Tau
Conditions: 5 µM; treatment time 5 days

Structure (SMILES) | pThr231Tau/total Tau ratio Z-score
CC(=O)Nc1cc([As](=O)(O)O)ccc1O | 1.52 ± 2.3
CC(=O)[O][Hg][c]1ccccc1 [PHENYLMERCURIC ACETATE    Therap cat:  fungicide] | -4.44 ± 0.27
O=c1[nH]c2ccccc2n1C1CCN(CCCC(c2ccc(F)cc2)c2ccc(F)cc2)CC1 [Prestw-308] | -1.01 ± 0.53
CN1C2CCC1CC(OC(=O)C(CO)c1ccccc1)C2 (stereo unspecified) [Prestw-565] | -0.23 ± 0.46
C#CCN(C)[C@H](C)Cc1ccccc1 [Prestw-552] | 0.307 ± 1.2
CN(C)C(=O)Oc1ccc[n+](C)c1 [Prestw-1322] | 0.0832 ± 1.3
C[C@@H]1O[C@@H](O[C@@H]2C=C3CC[C@@H]4[C@H](CC[C@]5(C)[C@@H](c6ccc(=O)oc6)CC[C@]45O)[C@@]3(C)CC2)[C@H](O)[C@H](O)[C@H]1O [PROSCILLARIDIN, cardiotonic] | -4.14 ± 2.2
C[C@@H]1O[C@@H](O[C@@H]2C=C3CC[C@@H]4[C@H](CC[C@]5(C)[C@@H](c6ccc(=O)oc6)CC[C@]45O)[C@@]3(C)CC2)[C@H](O)[C@H](O)[C@H]1O [Prestw-986] | -1 ± 2.8
NCCCNCCSP(=O)(O)O [Prestw-1489] | -0.685 ± 0.83
COP(=S)(OC)Oc1cc(Cl)c(Cl)cc1Cl [RONNEL, insecticide] | 0.896 ± 1.9
NCCC(O)C(=O)NC1CC(N)C(OC2OC(CN)C(O)[C@H](O)[C@@H]2N)[C@H](OC2O[C@H](CO)[C@@H](O)[C@@H]2O)[C@@H]1O (stereo partly specified) [Prestw-650] | 1.84 ± 1.1
Nc1ccc([As](=O)(O)O)cc1 [ARSANILIC ACID, antibacterial] | 0.153 ± 0.8
CC(C)C[C@H]1C(=O)N2CCC[C@H]2[C@]2(O)O[C@](NC(=O)[C@@H]3C=C4c5cccc6[nH]c(Br)c(c56)C[C@H]4N(C)C3)(C(C)C)C(=O)N12 [Prestw-121] | -1.15 ± 0.53
CNCC(O)c1ccc(O)cc1 (stereo unspecified) [Prestw-1088] | 0.973 ± 0.82
CN1C2CC(OC(=O)C(CO)c3ccccc3)CC1C1OC12 (stereo unspecified) [Prestw-877] | -0.393 ± 0.23
CCC1=C[C@H]2CN3CCc4c([nH]c5ccccc45)[C@](C(=O)OC)(C2)[C@H]13 [Prestw-187] | -0.174 ± 0.24
CNC(C)(C)Cc1ccccc1 [Prestw-726] | -0.472 ± 1.4
CCOP(=S)(OCC)Oc1cc(C)nc(C(C)C)n1 [DIAZINON    Use: insecticide, cholinesterase inhibitor] | 1.99 ± 2.6
C[C@]12CCC(=O)C(O)=C1CC[C@@H]1[C@@H]2CC[C@]2(C)C(=O)CC[C@@H]12 | 0.227 ± 0.0081
C[C@]12CCC(=O)C(O)=C1CC[C@@H]1[C@@H]2CC[C@]2(C)C(=O)CC[C@@H]12 [Prestw-1420] | -0.0663 ± 0.21
CNC(=O)Oc1ccc2c(c1)[C@]1(C)CCN(C)[C@@H]1N2C [Prestw-566] | -0.236 ± 0.57

Structure (SMILES) | pThr231Tau/total Tau ratio Z-score
CN(C)C(=O)Oc1cccc([N+](C)(C)C)c1 [Prestw-468] | -0.349 ± 0.29
COc1ccc(C(CN(C)C)C2(O)CCCCC2)cc1 (stereo unspecified) [Prestw-1170] | -0.663 ± 0.15
C[C@H](N)[C@H](O)c1ccccc1 [Prestw-324] | -0.214 ± 1.6
CCNCC(O)c1cccc(O)c1 (stereo unspecified) [Prestw-1017] | 2.14 ± 0.9
CN1CCc2cc3c(cc2C1O)OCO3 (stereo unspecified) | 0.547 ± 0.52
CC(C)(N)Cc1ccccc1 [Prestw-1308] | 0.892 ± 1.6
CC(=O)[C@H]1CC[C@H]2[C@@H]3CC[C@H]4C[C@H](O)CC[C@]4(C)[C@H]3C(=O)C[C@]12C [Prestw-1002] | 0.428 ± 0.17
C=C1C[C@@H]2[C@H](CC[C@]3(C)C(=O)CC[C@@H]23)[C@@]2(C)C=CC(=O)C=C12 [Prestw-1410] | 1.23 ± 1
COP(=S)(OC)Oc1ccc(Sc2ccc(OP(=S)(OC)OC)cc2)cc1 [TEMEPHOS    Use: insecticide] | 1.01 ± 2.2
CCOP(=S)(OCC)Oc1nc(Cl)c(Cl)cc1Cl [CHLORPYRIFOS    (DURSBAN)    Use: insecticide] | 0.432 ± 0.42
CCCCCCCCCCCCCCCC[n+]1ccccc1 | -3.18 ± 0.42
N[C@H]1C[C@@H]1c1ccccc1 [Prestw-173] | 0.488 ± 0.73
CC(=O)NC1CCSC1=O (stereo unspecified) [Prestw-644] | 0.517 ± 1.4
CNC(=O)Oc1ccccc1OC(C)C [PROPOXUR    Use: insecticide] | -0.242 ± 0.49
C[C@]12COC(=O)C[C@@H]1CC[C@@H]1[C@@H]2CC[C@@]2(C)[C@H]1CC[C@]2(C)O [Prestw-1192] | 1.31 ± 0.12
O=P1(N(CCCl)CCCl)NCCCO1 (stereo unspecified) [Prestw-1481] | 3.27 ± 1.5
c1ccc2c(c1)sc1ccccc12 [DIBENZOTHIOPHENE    Therap cat:  keratolytic] | 2.14 ± 2.4
CN(C)[C@@H]1C(=O)C(C(N)=O)=C(O)[C@@]2(O)C(=O)C3=C(O)c4c(O)cccc4[C@@](C)(O)[C@H]3[C@H](O)[C@@H]12 [Prestw-307] | 0.18 ± 0.99
CN1C(=O)CCS(=O)(=O)C1c1ccc(Cl)cc1 (stereo unspecified) [Prestw-336] | 0.227 ± 0.13
C[C@@H]1CN([C@H]2CC[C@](C#N)(c3ccc(F)cc3)CC2)CC[C@]1(C(=O)O)c1ccccc1 [Prestw-1039] | -0.325 ± 0.87
C=CCC1(CC(C)C)C(=O)NC(=O)NC1=O [Prestw-1251] | 1.83 ± 0.51

Structure (SMILES) | pThr231Tau/total Tau ratio Z-score
CCC1(CC)C(=O)NC(=O)NC1=O | 0.156 ± 1.7
O=C1CCO1 [BETA-PROPIOLACTONE    Therap cat: antiseptic] | 0.937 ± 0.93
O=C(CCCN1CCC(n2c(=O)[nH]c3ccccc32)CC1)c1ccc(F)cc1 [Prestw-484] | -0.64 ± 0.84
CCC(=O)O[C@H]1CC[C@H]2[C@@H]3CCC4=CC(=O)CC[C@]4(C)[C@H]3CC[C@]12C [Prestw-401] | 0.504 ± 0.79
COc1cccc([C@@]2(O)CCCC[C@@H]2CN(C)C)c1 [Prestw-1465] | -0.00259 ± 0.6
CNC(=O)Oc1cccc2c1OC(C)(C)C2 | 1.93 ± 1.6
CCC1(C)CC(=O)NC(=O)C1 [Prestw-882] | -0.735 ± 0.96
COC(C)(C)CCC[C@H](C)C/C=C/C(C)=C/C(=O)OC(C)C | 0.371 ± 0.78
CCCC(C)(COC(N)=O)COC(=O)NC(C)C (stereo unspecified) [Prestw-423] | 0.593 ± 0.86
Oc1ccc(Cl)cc1Cc1cc(Cl)ccc1O [DICHLOROPHENE    Therap cat:  Anthelmintic (Cestotodes)] | -3.54 ± 0.048
OC(c1ccccc1)(c1ccccc1)C1CCNCC1 [Prestw-93] | -0.513 ± 0.61
CN(C)c1ccc2nc3ccc(=[N+](C)C)cc-3sc2c1 [METHYLENE BLUE, antimethemoglobinemic, cyanide antidote] | -1.36 ± 0.079
C[N+]1(C)CCCC(OC(=O)C(O)(c2ccccc2)c2ccccc2)C1 (stereo unspecified) [Prestw-653] | 0.321 ± 0.094
C=CCc1ccc(OC)cc1 [ANETHOLE    ex anise, fennel and other plant oils] | -0.224 ± 0.053
CC[C@@H](C)C(=O)O[C@H]1[C@H](O)[C@H]2[C@@H](CN3C[C@@H](C)CC[C@H]3[C@@]2(C)O)[C@@H]2C[C@]34O[C@]5(O)[C@@H](OC(=O)[C@@](C)(O)CC)CC[C@@]3(C)[C@@H]5[C@@H](OC(C)=O)[C@@H](OC(C)=O)[C@H]4[C@@]21O | -1.57 ± 0.82
NCC1(CC(=O)O)CCCCC1 [Prestw-861] | 0.843 ± 0.49
NCC1(CC(=O)O)CCCCC1 [GABAPENTIN, anticonvulsant] | -0.0536 ± 0.74
O=c1cccc2n1C[C@@H]1CNC[C@H]2C1 | 0.711 ± 0.13
COc1ccc(OC)c([C@@H](O)[C@H](C)N)c1 [Prestw-535] | 1.6 ± 0.84
OCC(S)CS (stereo unspecified) | -0.451 ± 0.096
O=C(CCCN1CCC2(CC1)C(=O)NCN2c1ccccc1)c1ccc(F)cc1 [Prestw-288] | 1.7 ± 0.61

4 records picked at random from those above:
Structure (SMILES) | pThr231Tau/total Tau ratio Z-score
CC[C@@H](C)C(=O)O[C@H]1[C@H](O)[C@H]2[C@@H](CN3C[C@@H](C)CC[C@H]3[C@@]2(C)O)[C@@H]2C[C@]34O[C@]5(O)[C@@H](OC(=O)[C@@](C)(O)CC)CC[C@@]3(C)[C@@H]5[C@@H](OC(C)=O)[C@@H](OC(C)=O)[C@H]4[C@@]21O | -1.57 ± 0.82
C[C@@H]1O[C@@H](O[C@@H]2C=C3CC[C@@H]4[C@H](CC[C@]5(C)[C@@H](c6ccc(=O)oc6)CC[C@]45O)[C@@]3(C)CC2)[C@H](O)[C@H](O)[C@H]1O [Prestw-986] | -1 ± 2.8
C[C@H](N)[C@H](O)c1ccccc1 [Prestw-324] | -0.214 ± 1.6
COc1ccc(C(CN(C)C)C2(O)CCCCC2)cc1 (stereo unspecified) [Prestw-1170] | -0.663 ± 0.15

(continued)

Structure (SMILES) | pThr231Tau/total Tau ratio Z-score
C=C1CC[C@@]2(O)[C@H]3Cc4ccc(O)c5c4[C@@]2(CCN3CC2CC2)[C@H]1O5 [Prestw-1490] | -0.379 ± 0.24
O=[N+]([O-])O[C@H]1CO[C@H]2[C@@H]1OC[C@H]2O[N+](=O)[O-] [Prestw-714] | -0.792 ± 0.65
CC(O)(CS(=O)(=O)c1ccc(F)cc1)C(=O)Nc1ccc(C#N)c(C(F)(F)F)c1 (stereo unspecified) [Prestw-1239] | -0.0449 ± 0.48
CCOC(=O)c1cncn1[C@H](C)c1ccccc1 [Prestw-1041] | 1.33 ± 0.56
CC[C@@H](CO)NC(=O)[C@@H]1C=C2c3cccc4[nH]cc(c34)C[C@H]2N(C)C1 [Prestw-374] | 0.821 ± 1.4
CCC1(C2=NCCN2)Cc2ccccc2O1 (stereo unspecified) [I1 Imidazoline binding site antagonist] | 1.01 ± 3.9
CCCCOC(=O)c1ccccc1C(=O)OCCCC | 0.183 ± 2.1
O=C(O)c1nn(Cc2ccc(Cl)cc2Cl)c2ccccc12 | 0.296 ± 0.82
COc1ccc2c(c1OC)C(=O)O[C@@H]2[C@H]1c2cc3c(cc2CCN1C)OCO3 | 1.07 ± 0.79
Cc1cc(C(C#N)c2ccc(Cl)cc2)c(Cl)cc1NC(=O)c1cc(I)cc(I)c1O (stereo unspecified) [Prestw-1385] | -0.567 ± 0.71
C[C@@H]1C[C@@H]([C@H](O)CC2CC(=O)NC(=O)C2)C(=O)[C@@H](C)C1 [Prestw-790] | -1.52 ± 0.73
O=c1[nH]oc2c1CCNC2 [Prestw-972] | 0.279 ± 1.4
CC1C=CC=CCCC=CC=CC=CC=CC(OC2OC(C)C(O)C(N)C2O)CC2OC(O)(CC(O)C(O)CCC(O)CC(O)CC(O)CC(=O)OC(C)C(C)C1O)CC(O)C2C(=O)O (stereo unspecified) [Prestw-517] | -0.905 ± 0.49
COc1cc2c(c(OC)c1OC)-c1ccc(OC)c(=O)cc1[C@@H](NC(C)=O)CC2 [Prestw-363] | 4.72 ± 12
CC[C@@H](CO)NC(=O)[C@@H]1C=C2c3cccc4c3c(cn4C)C[C@H]2N(C)C1 | -0.573 ± 0.67
C[C@]12CC[C@H](O)CC1=CC[C@@H]1[C@@H]2CC[C@]2(C)C(=O)CC[C@@H]12 | 0.999 ± 0.53
c1ccc2c(c1)OCC(C1=NCCN1)O2 (stereo unspecified) [Prestw-926] | -0.293 ± 1.1
CCCCCC[C@H]1C(=O)O[C@H](C)[C@H](NC(=O)c2cccc(NC=O)c2O)C(=O)O[C@@H](C)[C@@H]1OC(=O)CC(C)C [Prestw-222] | -3.17 ± 1.3

Not a retest: entries from further up.
Structure (SMILES) | pThr231Tau/total Tau ratio Z-score
c1ccc2c(c1)OCC(C1=NCCN1)O2 (stereo unspecified) [Prestw-926] | -0.293 ± 1.1
CCCCCC[C@H]1C(=O)O[C@H](C)[C@H](NC(=O)c2cccc(NC=O)c2O)C(=O)O[C@@H](C)[C@@H]1OC(=O)CC(C)C [Prestw-222] | -3.17 ± 1.3

Reference: the supplement of paper PMC6414424
